{"source": "PubChem BioAssay AID1259425 (University of Nebraska Medical Center, 2018)", "test": "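Compare each knockdown with KSR1 silencing using changes in marker transcripts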 (primary screen)", "cell system": "HCT116 human colon cancer cells", "knock-down reagent": "siRNA pool against human genes, 50 nM siRNA", "measurement": "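After 50 nM siRNA pool, branched-DNA assay measures six marker transcripts per well, minus blank, normalised to the geometric mean of two housekeeping transcripts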", "reading the numbers": "BNIP3L mRNA: higher = more BNIP3L transcript after knockdown", "note": "The deposit covers about 14,000 reagents; shown is a random part of them. Further read-outs or replicates are left out here. The record does not give: the time to read-out."}
The opening 2 entries as a preview:
{"gene": "MOV10 (Mov10 RNA helicase)", "BNIP3L mRNA, set 1": 0.0915}
{"gene": "PRRX2 (paired related homeobox 2)", "BNIP3L mRNA, set 1": 0.184}

Results, from the first entry:
{"gene": "MOV10 (Mov10 RNA helicase)", "BNIP3L mRNA, set 1": 0.0915}
{"gene": "PRRX2 (paired related homeobox 2)", "BNIP3L mRNA, set 1": 0.184}
{"gene": "ECPAS (Ecm29 proteasome adaptor and scaffold)", "BNIP3L mRNA, set 1": 0.0774}
{"gene": "RTCB (RNA 2',3'-cyclic phosphate and 5'-OH ligase)", "BNIP3L mRNA, set 1": 0.0741}
{"gene": "ZNF669 (zinc finger protein 669)", "BNIP3L mRNA, set 1": 0.154}
{"gene": "LRRCC1 (leucine rich repeat and coiled-coil centrosomal protein 1)", "BNIP3L mRNA, set 1": 0.224}
{"gene": "SIRT1 (sirtuin 1)", "BNIP3L mRNA, set 1": 0.0886}
{"gene": "SPRR2A (small proline rich protein 2A)", "BNIP3L mRNA, set 1": 0.116}
{"gene": "BTN3A2 (butyrophilin subfamily 3 member A2)", "BNIP3L mRNA, set 1": 0.118}
{"gene": "CRCP (CGRP receptor component)", "BNIP3L mRNA, set 1": 0.0543}
{"gene": "PXMP4 (peroxisomal membrane protein 4)", "BNIP3L mRNA, set 1": 0.107}
{"gene": "ITK (IL2 inducible T cell kinase)", "BNIP3L mRNA, set 1": 0.0403}
{"gene": "IRF2BP1 (interferon regulatory factor 2 binding protein 1)", "BNIP3L mRNA, set 1": 0.0851}
{"gene": "DPYSL4 (dihydropyrimidinase like 4)", "BNIP3L mRNA, set 1": 0.155}
{"gene": "PSPHP1 (phosphoserine phosphatase pseudogene 1)", "BNIP3L mRNA, set 1": 0.0946}
{"gene": "C1GALT1", "BNIP3L mRNA, set 1": 0.252}
{"gene": "ACHE (acetylcholinesterase (Yt blood group))", "BNIP3L mRNA, set 1": 0.103}
{"gene": "SMO (smoothened, frizzled class receptor)", "BNIP3L mRNA, set 1": 0.218}
{"gene": "MTMR4 (myotubularin related protein 4)", "BNIP3L mRNA, set 1": 0.0742}
{"gene": "UGT2B17 (UDP glucuronosyltransferase family 2 member B17)", "BNIP3L mRNA, set 1": 0.109}
{"gene": "PGM3 (phosphoglucomutase 3)", "BNIP3L mRNA, set 1": 0.182}
{"gene": "ARAP3 (ArfGAP with RhoGAP domain, ankyrin repeat and PH domain 3)", "BNIP3L mRNA, set 1": 0.114}
{"gene": "STGC3 (retired record)", "BNIP3L mRNA, set 1": 0.0444}
{"gene": "CYP19A1 (cytochrome P450 family 19 subfamily A member 1)", "BNIP3L mRNA, set 1": 0.0505}
{"gene": "TSC22D1 (TSC22 domain family member 1)", "BNIP3L mRNA, set 1": 0.127}
{"gene": "MRNIP (MRN complex interacting protein)", "BNIP3L mRNA, set 1": 0.0983}
{"gene": "PTPN13 (protein tyrosine phosphatase non-receptor type 13)", "BNIP3L mRNA, set 1": 0.0913}
{"gene": "LRCH4", "BNIP3L mRNA, set 1": 0.128}
